Source: article PMC4890666
Results are given in words; binding and its absence hold for the method and conditions named. In cells and extracts the contact can be indirect. Some results given as binding are weak or reduced against the parent protein; the word gives no strength. Where a sequence is shown, tags or fusion partners need not be part of it.

Chains of the proteins cited; added tags and fusions are not shown.
UniProt Q04205: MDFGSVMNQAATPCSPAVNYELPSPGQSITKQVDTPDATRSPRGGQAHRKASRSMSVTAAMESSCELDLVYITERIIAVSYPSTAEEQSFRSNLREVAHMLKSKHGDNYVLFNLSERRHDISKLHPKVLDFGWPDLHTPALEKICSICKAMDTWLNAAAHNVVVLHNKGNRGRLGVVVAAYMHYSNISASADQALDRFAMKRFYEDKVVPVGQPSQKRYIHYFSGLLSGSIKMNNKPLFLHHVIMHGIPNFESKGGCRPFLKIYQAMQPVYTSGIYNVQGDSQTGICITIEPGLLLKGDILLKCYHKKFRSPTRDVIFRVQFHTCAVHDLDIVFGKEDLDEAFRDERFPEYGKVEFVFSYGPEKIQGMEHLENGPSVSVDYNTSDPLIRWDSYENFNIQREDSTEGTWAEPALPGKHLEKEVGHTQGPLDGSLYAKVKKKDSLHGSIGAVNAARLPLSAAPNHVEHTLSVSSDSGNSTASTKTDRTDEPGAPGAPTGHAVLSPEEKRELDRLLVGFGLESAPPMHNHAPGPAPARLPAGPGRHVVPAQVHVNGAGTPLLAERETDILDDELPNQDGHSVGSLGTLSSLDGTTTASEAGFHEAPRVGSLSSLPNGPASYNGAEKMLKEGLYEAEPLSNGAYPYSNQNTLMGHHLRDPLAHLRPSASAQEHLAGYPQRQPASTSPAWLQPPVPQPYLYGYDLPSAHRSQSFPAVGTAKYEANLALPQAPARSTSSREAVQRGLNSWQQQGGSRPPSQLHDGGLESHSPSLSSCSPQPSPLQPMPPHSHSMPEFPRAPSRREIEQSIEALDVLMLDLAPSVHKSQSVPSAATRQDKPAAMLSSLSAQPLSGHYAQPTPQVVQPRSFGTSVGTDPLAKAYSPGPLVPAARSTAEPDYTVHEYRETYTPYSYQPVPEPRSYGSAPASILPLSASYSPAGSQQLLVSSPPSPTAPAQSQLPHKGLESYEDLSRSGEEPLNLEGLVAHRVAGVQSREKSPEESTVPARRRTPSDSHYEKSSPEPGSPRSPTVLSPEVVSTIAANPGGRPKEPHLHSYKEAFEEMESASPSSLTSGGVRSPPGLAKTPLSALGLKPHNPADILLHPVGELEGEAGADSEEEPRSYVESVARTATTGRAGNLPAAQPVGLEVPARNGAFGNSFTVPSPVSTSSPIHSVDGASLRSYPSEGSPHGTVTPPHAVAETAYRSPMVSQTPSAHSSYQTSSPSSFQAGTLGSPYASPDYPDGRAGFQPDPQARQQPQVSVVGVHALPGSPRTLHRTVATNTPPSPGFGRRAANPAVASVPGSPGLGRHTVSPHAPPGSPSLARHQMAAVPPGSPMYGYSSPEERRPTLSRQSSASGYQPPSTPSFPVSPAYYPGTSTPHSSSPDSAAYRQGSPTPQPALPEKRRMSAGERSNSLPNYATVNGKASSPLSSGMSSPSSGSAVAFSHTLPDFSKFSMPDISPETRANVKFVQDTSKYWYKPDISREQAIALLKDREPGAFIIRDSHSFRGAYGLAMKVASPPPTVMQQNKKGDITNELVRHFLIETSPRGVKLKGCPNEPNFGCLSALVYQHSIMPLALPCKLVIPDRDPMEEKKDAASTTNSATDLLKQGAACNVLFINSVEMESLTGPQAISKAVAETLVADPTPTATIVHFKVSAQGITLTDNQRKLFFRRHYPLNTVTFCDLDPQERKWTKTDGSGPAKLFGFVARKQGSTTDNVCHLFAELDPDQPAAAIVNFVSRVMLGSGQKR

Target: T1, FLAG-tagged wild-type Cas (p130Cas, Crk-associated substrate) (UniProt Q61140)
T1 sequence: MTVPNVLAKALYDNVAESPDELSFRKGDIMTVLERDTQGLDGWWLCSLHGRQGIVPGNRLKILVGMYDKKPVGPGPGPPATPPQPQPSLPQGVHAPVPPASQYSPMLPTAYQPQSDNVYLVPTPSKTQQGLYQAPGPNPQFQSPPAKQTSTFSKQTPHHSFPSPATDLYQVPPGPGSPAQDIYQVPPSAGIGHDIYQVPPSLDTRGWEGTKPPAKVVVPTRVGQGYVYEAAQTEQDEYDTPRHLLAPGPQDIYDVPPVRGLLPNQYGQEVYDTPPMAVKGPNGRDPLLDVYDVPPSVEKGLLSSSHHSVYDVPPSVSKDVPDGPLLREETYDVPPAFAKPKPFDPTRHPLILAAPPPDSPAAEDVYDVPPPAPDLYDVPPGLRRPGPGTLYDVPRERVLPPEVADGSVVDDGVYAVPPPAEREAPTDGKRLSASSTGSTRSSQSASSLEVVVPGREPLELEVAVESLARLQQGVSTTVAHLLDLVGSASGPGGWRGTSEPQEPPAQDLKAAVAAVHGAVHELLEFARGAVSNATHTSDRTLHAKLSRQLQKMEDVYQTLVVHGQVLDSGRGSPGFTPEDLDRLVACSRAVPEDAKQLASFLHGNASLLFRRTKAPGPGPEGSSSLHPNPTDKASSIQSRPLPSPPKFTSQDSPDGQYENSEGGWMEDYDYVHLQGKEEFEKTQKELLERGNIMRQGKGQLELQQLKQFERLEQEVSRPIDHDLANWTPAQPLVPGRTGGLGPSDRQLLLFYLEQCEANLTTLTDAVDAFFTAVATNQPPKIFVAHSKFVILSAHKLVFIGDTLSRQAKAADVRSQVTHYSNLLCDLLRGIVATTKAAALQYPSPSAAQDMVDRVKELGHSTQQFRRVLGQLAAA
Assay: co-IP; anti-FLAG (M2) Affinity Gel on lysates of HEK293T cells co-transfected 24 h with FLAG-Cas variants and Cerulean-tensin 1 variants; anti-GFP blot detects Cerulean

**Q.** How did the binding turn out when “Cerulean-tagged tensin 1 (full-length) (from UniProt Q04205 1-1744)” was run?
**A.** binds
